From the supplement of paper PMC10849652
Some of the results follow.

Protein sequences, listed by entry. Tags and fused reporters are not part of them. Lines headed by an entry give the natural chain unless they say otherwise; changes in a name come on top.
UniProt Q9UHQ4: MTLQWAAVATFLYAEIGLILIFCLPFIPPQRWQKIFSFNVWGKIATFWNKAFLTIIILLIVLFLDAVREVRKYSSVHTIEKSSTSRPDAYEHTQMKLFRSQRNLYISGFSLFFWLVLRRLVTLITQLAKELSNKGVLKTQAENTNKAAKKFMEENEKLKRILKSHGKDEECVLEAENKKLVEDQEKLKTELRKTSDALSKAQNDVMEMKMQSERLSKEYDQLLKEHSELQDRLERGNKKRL
UniProt Q16611: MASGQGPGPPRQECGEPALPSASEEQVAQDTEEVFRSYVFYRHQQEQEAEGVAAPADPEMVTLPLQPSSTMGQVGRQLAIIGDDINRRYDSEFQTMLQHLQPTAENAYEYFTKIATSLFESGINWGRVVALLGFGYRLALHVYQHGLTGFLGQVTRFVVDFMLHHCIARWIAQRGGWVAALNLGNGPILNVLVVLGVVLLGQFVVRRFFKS
UniProt Q67FW5: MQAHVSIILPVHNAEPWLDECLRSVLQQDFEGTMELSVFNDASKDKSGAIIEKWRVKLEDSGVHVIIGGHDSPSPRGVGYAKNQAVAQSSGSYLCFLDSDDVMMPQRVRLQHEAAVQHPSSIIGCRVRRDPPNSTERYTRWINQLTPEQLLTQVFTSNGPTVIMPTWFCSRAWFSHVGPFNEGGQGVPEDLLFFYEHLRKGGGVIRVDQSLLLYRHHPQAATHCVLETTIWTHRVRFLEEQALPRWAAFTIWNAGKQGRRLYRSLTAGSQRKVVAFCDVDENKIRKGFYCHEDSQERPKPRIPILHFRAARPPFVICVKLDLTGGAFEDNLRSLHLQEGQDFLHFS
UniProt Q9BXH1: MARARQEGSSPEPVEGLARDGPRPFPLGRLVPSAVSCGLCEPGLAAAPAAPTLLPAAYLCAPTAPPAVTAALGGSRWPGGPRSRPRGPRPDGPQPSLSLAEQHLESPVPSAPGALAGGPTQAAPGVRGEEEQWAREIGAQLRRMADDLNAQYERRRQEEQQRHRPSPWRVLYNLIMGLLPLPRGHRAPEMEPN
UniProt Q9H3K6: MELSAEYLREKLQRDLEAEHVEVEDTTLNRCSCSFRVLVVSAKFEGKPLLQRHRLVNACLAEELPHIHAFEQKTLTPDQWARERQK
UniProt O14867: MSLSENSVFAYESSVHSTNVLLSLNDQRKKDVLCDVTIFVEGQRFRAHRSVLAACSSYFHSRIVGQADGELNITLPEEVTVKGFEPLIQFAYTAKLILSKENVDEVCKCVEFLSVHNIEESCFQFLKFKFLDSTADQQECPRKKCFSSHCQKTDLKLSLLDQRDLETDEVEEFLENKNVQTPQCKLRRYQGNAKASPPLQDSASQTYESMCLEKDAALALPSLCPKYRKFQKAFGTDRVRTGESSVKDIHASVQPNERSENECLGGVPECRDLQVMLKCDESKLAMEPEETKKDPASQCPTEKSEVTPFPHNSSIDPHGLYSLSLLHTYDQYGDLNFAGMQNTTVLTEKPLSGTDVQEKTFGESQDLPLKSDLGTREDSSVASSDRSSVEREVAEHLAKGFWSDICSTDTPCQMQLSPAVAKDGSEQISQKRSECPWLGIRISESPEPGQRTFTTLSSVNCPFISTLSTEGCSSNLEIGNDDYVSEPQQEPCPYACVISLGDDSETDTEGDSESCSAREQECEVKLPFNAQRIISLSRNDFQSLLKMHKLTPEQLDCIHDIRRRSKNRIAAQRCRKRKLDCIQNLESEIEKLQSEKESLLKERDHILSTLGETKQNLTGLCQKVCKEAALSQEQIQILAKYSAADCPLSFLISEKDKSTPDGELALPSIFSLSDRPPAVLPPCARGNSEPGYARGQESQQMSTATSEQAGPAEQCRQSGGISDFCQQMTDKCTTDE
UniProt Q6W2J9: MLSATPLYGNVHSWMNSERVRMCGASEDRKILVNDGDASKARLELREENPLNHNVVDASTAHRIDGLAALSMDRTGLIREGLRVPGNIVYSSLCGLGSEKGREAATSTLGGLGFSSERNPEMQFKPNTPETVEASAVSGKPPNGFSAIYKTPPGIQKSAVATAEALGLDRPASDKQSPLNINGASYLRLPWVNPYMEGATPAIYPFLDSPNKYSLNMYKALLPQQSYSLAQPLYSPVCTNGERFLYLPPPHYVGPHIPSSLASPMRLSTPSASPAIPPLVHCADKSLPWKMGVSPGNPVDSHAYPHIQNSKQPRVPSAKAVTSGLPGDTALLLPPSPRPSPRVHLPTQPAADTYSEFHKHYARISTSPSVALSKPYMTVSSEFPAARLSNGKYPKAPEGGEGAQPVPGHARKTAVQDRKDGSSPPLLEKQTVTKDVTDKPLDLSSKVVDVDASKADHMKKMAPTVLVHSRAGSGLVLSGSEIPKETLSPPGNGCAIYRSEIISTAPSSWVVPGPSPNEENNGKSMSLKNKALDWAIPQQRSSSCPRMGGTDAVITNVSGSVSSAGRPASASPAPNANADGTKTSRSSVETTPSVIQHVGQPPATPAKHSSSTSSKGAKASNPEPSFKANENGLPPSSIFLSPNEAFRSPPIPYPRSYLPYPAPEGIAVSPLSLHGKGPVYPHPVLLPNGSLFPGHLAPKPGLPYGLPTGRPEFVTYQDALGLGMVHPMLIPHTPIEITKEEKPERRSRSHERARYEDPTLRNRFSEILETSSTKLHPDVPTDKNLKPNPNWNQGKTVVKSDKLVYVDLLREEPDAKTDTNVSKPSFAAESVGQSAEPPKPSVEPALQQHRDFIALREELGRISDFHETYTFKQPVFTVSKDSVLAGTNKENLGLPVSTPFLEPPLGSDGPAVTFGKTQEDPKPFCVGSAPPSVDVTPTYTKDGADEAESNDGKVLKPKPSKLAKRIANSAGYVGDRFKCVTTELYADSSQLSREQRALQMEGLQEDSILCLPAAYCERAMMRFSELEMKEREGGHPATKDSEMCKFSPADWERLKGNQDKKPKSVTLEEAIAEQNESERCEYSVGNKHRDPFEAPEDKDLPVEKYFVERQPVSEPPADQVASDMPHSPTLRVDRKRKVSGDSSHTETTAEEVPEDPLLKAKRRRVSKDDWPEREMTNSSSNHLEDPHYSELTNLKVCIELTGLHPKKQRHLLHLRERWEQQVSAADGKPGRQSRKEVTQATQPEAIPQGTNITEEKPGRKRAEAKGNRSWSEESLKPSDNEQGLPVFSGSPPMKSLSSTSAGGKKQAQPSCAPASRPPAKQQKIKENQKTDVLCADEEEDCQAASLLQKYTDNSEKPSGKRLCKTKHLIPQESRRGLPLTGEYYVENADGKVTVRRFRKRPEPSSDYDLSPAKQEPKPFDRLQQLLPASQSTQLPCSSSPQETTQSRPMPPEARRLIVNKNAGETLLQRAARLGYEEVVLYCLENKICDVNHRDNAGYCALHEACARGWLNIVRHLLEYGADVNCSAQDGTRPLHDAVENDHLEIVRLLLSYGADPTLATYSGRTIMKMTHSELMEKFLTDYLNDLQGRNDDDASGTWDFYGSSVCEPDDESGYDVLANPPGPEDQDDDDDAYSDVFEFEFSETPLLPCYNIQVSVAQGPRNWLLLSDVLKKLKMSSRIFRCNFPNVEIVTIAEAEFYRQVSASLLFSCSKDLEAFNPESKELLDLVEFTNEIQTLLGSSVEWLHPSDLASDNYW
UniProt P61769, whole entry, looked up: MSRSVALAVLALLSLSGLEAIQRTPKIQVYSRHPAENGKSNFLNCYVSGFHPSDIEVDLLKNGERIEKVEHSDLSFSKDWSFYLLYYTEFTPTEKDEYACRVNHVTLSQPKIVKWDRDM
UniProt O15155: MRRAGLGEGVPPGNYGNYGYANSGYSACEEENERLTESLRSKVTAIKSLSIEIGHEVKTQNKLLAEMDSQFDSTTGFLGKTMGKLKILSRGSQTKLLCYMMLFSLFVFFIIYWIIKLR
UniProt Q9BXK5, whole entry, looked up: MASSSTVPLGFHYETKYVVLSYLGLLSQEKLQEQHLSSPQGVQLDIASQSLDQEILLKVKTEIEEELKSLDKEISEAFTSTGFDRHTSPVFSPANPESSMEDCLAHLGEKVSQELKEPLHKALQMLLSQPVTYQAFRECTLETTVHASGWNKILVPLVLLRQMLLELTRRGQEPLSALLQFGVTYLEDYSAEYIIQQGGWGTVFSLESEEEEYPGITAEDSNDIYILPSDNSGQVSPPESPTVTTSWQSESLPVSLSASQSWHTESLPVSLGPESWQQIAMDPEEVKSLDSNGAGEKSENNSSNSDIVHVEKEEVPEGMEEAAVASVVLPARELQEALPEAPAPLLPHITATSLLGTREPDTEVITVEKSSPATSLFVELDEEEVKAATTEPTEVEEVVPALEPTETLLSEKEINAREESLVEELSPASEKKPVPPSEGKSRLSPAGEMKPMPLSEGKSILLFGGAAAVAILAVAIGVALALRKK
UniProt Q13825: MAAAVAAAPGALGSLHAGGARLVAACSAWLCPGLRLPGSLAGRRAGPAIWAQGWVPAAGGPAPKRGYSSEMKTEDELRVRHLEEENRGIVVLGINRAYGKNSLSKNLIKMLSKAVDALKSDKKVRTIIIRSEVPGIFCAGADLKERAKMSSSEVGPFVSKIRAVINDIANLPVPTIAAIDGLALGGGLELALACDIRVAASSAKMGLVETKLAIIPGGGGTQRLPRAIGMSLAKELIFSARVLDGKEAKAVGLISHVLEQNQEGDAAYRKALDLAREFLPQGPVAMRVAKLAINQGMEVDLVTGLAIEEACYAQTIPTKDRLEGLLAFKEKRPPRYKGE
UniProt Q86UU0: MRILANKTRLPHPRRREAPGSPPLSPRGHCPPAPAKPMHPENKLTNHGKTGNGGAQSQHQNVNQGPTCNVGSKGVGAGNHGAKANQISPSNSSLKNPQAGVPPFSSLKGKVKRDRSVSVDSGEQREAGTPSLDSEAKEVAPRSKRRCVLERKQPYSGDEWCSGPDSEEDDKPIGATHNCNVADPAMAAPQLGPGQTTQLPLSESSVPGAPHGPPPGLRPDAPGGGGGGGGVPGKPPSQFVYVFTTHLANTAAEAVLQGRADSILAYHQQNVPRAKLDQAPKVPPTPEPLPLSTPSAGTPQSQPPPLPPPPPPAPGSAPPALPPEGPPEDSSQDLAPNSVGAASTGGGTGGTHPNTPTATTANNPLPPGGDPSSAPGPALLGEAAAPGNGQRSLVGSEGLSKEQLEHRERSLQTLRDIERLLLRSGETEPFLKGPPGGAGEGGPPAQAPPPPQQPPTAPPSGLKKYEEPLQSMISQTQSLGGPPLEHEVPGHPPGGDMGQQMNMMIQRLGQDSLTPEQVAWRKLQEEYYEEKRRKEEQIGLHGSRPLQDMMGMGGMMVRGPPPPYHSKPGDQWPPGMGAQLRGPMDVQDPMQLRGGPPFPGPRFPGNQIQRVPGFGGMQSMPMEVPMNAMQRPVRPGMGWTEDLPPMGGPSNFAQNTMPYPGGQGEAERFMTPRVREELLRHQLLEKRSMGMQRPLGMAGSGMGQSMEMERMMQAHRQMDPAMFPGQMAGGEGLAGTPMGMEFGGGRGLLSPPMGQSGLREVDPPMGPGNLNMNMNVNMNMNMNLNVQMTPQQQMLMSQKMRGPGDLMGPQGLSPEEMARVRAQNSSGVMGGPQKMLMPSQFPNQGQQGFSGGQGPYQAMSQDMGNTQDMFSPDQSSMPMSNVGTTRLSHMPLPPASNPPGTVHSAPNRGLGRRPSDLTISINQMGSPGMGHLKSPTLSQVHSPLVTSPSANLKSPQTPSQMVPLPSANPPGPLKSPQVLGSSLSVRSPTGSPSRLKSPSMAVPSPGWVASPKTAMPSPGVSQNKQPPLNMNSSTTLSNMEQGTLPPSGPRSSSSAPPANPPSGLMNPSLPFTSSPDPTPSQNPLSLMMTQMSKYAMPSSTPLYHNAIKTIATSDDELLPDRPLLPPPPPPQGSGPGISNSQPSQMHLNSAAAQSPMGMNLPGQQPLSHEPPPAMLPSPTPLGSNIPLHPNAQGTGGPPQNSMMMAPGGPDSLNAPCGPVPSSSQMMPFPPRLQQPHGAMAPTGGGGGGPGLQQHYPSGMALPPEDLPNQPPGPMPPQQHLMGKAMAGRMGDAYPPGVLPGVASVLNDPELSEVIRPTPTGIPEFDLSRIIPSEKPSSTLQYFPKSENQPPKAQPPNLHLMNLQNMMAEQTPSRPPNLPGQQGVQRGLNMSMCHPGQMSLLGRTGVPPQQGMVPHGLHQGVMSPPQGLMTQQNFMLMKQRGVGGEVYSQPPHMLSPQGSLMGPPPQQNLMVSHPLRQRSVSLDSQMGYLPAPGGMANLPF
UniProt Q13867: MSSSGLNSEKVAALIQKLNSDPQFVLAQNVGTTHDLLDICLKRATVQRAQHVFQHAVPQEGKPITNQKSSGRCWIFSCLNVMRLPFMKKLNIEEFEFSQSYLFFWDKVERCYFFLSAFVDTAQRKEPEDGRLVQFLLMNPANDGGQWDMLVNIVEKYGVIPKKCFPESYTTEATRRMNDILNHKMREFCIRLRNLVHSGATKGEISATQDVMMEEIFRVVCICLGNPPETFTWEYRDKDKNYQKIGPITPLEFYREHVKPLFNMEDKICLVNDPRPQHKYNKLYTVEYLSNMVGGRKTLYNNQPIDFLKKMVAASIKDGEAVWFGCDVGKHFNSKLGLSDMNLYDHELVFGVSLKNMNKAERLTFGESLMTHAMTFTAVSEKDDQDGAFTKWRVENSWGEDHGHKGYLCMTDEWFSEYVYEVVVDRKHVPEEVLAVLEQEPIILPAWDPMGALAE

Key:
Test in all cases: log2 fold change, soluble protein after heating vs DMSO (PISA); higher = thermal stabilisation; K562 cells, 10 uM, 30 min; active = over 0.2 and 3.5 SD of the protein, either way, in both replicates (recomputed)
[1] = compound: C1=CC=C(C=C1)[C@H](COC2=CC3=C(C=C2)NC(=O)N3)NC(=O)C4=CC=CN(C4=O)CC5=CC(=C(C=C5)F)F
Method in brief: (§1)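 K562 cells (2×10^6 cells/mL) were treated with 10 μM compound for 30 min, and aliquots were heated for 3 min over 48°C-58°C. Pooled aliquots were extracted in PBS with 0.5% NP-40 at 4°C, and the supernatant after 21,000xg for 90 min was measured by TMTpro 16plex LC-MS/MS with channel sums equalised. Reported thermal stability, relative to control samples and from duplicates, is a log2 fold change.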

[2] = compound: CC1=C(SC2=C1C(=N[C@H](C3=NN=C(N32)C)CC(=O)N)C4=CC=C(C=C4)Cl)C
Method in brief: as §1

[3] = compound: CC1=C2C(=CC=C1)N=C(N(C2=O)C3=CC=CC=C3C)CN4C=NC5=C(N=CN=C54)N
Method in brief: as §1

[4] = compound: Cc1sc2c(c1C)C(c1ccc(Cl)cc1)=N[C@@H](CC(=O)OC(C)(C)C)c1nnc(C)n1-2
Method in brief: as §1

[5] = compound: c1ccc([C@@H]2C[C@H]2NC2CCNCC2)cc1
Method in brief: as §1

Target | log2 fold change [1] | log2 fold change [2] | log2 fold change [3] | log2 fold change [4] | log2 fold change [5]
BCAP31 isoform 2 (UniProt P51572) | inactive: -0.003 | inactive: -0.012 | inactive: 0 | inactive: -0.003 | inactive: -0.001
BAX isoform 2 (UniProt Q07812) | inactive: -0.034 | inactive: 0.011 | inactive: 0.018 | inactive: -0.032 | inactive: -0.008
BCKDHA (UniProt P12694) | inactive: -0.056 | inactive: -0.001 | inactive: 0.026 | inactive: -0.039 | inactive: -0.016
BRD2 isoform 2 (UniProt P25440) | inactive: -0.257 | active: 2.34 | inactive: 0.092 | active: 2.33 | inactive: 0.029
BCAP29 isoform 2 (UniProt Q9UHQ4) | inactive: -0.017 | inactive: 0.029 | inactive: 0.035 | inactive: -0.008 | inactive: 0.032
BCCIP isoform 2 (UniProt Q9P287) | inactive: -0.031 | inactive: 0.002 | inactive: -0.001 | inactive: -0.035 | inactive: 0.014
BID isoform 2 (UniProt P55957) | inactive: -0.036 | inactive: 0.059 | inactive: 0.081 | inactive: -0.076 | inactive: -0.053
BAK1 (UniProt Q16611) | inactive: -0.035 | inactive: 0.09 | inactive: 0.059 | inactive: -0.001 | inactive: 0.026
BABAM1 (UniProt Q9NWV8) | inactive: 0.043 | inactive: -0.006 | inactive: -0.063 | inactive: -0.001 | inactive: 0.032
BLOC1S4 (UniProt Q9NUP1) | inactive: -0.032 | inactive: 0.028 | inactive: 0.025 | inactive: -0.029 | inactive: -0.022
BAIAP2 (UniProt Q9UQB8) | inactive: -0.019 | inactive: 0.071 | inactive: 0.072 | inactive: 0.014 | inactive: 0.002
BPNT1 (UniProt O95861) | inactive: 0.026 | inactive: 0.006 | inactive: 0.013 | inactive: -0.025 | inactive: 0.007
BCKDK (UniProt O14874) | inactive: 0.061 | inactive: -0.099 | inactive: -0.028 | inactive: 0.034 | inactive: -0.083
BAIAP2L1 (UniProt Q9UHR4) | inactive: 0.013 | inactive: 0.029 | inactive: 0.038 | inactive: 0.025 | inactive: 0.011
BOP1 (UniProt Q14137) | inactive: 0.096 | inactive: -0.099 | inactive: 0.01 | inactive: -0.036 | inactive: -0.01
ATXN2 (UniProt Q99700) | inactive: 0.004 | inactive: 0.005 | inactive: -0.003 | inactive: 0.038 | inactive: 0.014
BROX (UniProt Q5VW32) | inactive: -0.029 | inactive: 0.058 | inactive: 0.109 | inactive: -0.01 | inactive: -0.006
B3GNTL1 (UniProt Q67FW5) | inactive: 0.009 | inactive: 0.091 | inactive: 0.093 | inactive: -0.019 | inactive: -0.005
BLVRB (UniProt P30043) | inactive: -0.029 | inactive: 0.027 | inactive: -0.01 | inactive: -0.006 | inactive: 0.013
BCL10 (UniProt O95999) | inactive: -0.111 | inactive: -0.106 | inactive: 0.059 | inactive: 0.017 | inactive: 0.006
BORCS6 (UniProt Q96GS4) | inactive: 0 | inactive: 0.053 | inactive: -0.005 | inactive: -0.008 | inactive: -0.014
BRD8 isoform 2 (UniProt Q9H0E9) | inactive: 0.035 | inactive: -0.091 | inactive: 0.167 | inactive: 0.046 | inactive: 0.038
BSDC1 (UniProt Q9NW68) | inactive: 0 | inactive: 0.049 | inactive: 0.001 | inactive: -0.015 | inactive: 0.023
BBC3 (UniProt Q9BXH1) | inactive: 0.046 | inactive: 0.026 | inactive: 0.203 | inactive: -0.049 | inactive: -0.039
BSCL2 isoform 4 (UniProt Q96G97) | inactive: -0.07 | inactive: 0.106 | inactive: -0.084 | inactive: 0.027 | inactive: -0.127
BOLA2 (UniProt Q9H3K6) | inactive: -0.014 | inactive: 0.115 | inactive: 0.081 | inactive: -0.042 | inactive: -0.031
ATR (UniProt Q13535) | inactive: -0.045 | inactive: 0.025 | inactive: 0.107 | inactive: -0.022 | inactive: -0.079

An excerpt of these results, tab-delimited.
Target	log2 fold change [1]	log2 fold change [2]	log2 fold change [3]	log2 fold change [4]	log2 fold change [5]
BAX isoform 2 (UniProt Q07812)	inactive: -0.034	inactive: 0.011	inactive: 0.018	inactive: -0.032	inactive: -0.008
BCKDHA (UniProt P12694)	inactive: -0.056	inactive: -0.001	inactive: 0.026	inactive: -0.039	inactive: -0.016

Further entries:

Target | log2 fold change [1] | log2 fold change [2] | log2 fold change [3] | log2 fold change [4] | log2 fold change [5]
BAG6 isoform 3 (UniProt P46379) | inactive: 0.004 | inactive: 0.066 | inactive: 0.019 | inactive: 0.043 | inactive: -0.023
BLM (UniProt P54132) | inactive: -0.005 | inactive: 0.117 | inactive: 0.101 | inactive: -0.044 | inactive: 0.005
BAG3 (UniProt O95817) | inactive: 0.036 | inactive: 0.03 | inactive: 0.031 | inactive: 0.008 | inactive: 0.016
BAG4 (UniProt O95429) | inactive: 0.014 | inactive: 0.123 | inactive: 0.081 | inactive: 0.021 | inactive: 0.024
BRD8 (UniProt Q9H0E9) | inactive: 0.027 | inactive: -0.009 | inactive: 0.023 | inactive: 0.009 | inactive: 0.021
BACH1 (UniProt O14867) | inactive: 0.011 | inactive: 0.031 | inactive: -0.002 | inactive: 0.04 | inactive: -0.014
BCOR (UniProt Q6W2J9) | inactive: 0.042 | inactive: -0.049 | inactive: 0.318 | inactive: 0.135 | inactive: 0.055
BAHCC1 (UniProt Q9P281) | inactive: -0.126 | inactive: -0.064 | inactive: 0.273 | inactive: 0.164 | inactive: -0.024
B2M (UniProt P61769) | inactive: 0.01 | inactive: 0.25 | inactive: 0.156 | inactive: -0.045 | inactive: -0.214
B3GLCT (UniProt Q6Y288) | inactive: 0.015 | inactive: -0.025 | inactive: -0.051 | inactive: -0.004 | inactive: 0
BABAM2 (UniProt Q9NXR7) | inactive: 0.061 | inactive: 0.005 | inactive: -0.038 | inactive: 0.015 | inactive: -0.021
BCCIP (UniProt Q9P287) | inactive: -0.044 | inactive: -0.018 | inactive: 0 | inactive: -0.037 | inactive: -0.062
BET1 (UniProt O15155) | inactive: 0.036 | inactive: 0.075 | inactive: 0.06 | inactive: -0.052 | inactive: 0.004
BRD3 (UniProt Q15059) | inactive: 0.002 | active: 1.9 | inactive: 0 | active: 1.56 | inactive: -0.021
BPGM (UniProt P07738) | inactive: -0.025 | inactive: 0.065 | inactive: 0.015 | inactive: -0.018 | inactive: 0.044
BCL2L2 isoform 2 (UniProt Q92843) | inactive: 0.045 | inactive: -0.017 | inactive: 0.053 | inactive: 0.111 | inactive: 0.083
BRCC3 (UniProt P46736) | inactive: 0.019 | inactive: -0.019 | inactive: 0.033 | inactive: 0.028 | inactive: 0.038
BCL2L13 (UniProt Q9BXK5) | inactive: -0.035 | inactive: 0.03 | inactive: 0.033 | inactive: -0.006 | inactive: -0.005
BLOC1S1 (UniProt P78537) | inactive: -0.028 | inactive: 0.075 | inactive: 0.026 | inactive: -0.083 | inactive: -0.032
AUH (UniProt Q13825) | inactive: 0.015 | inactive: 0.065 | inactive: -0.116 | inactive: -0.042 | inactive: -0.001
BRK1 isoform 2 (UniProt Q8WUW1) | inactive: 0.018 | inactive: -0.018 | inactive: 0.025 | inactive: -0.055 | inactive: -0.013
BRIP1 (UniProt Q9BX63) | inactive: 0.042 | inactive: -0.005 | inactive: 0 | inactive: -0.042 | inactive: 0.122
BCKDHB (UniProt P21953) | inactive: -0.076 | inactive: -0.066 | inactive: 0.074 | inactive: -0.065 | inactive: 0.089
BLOC1S3 (UniProt Q6QNY0) | inactive: -0.048 | inactive: 0.084 | inactive: 0.088 | inactive: -0.113 | inactive: -0.06
BCL9L (UniProt Q86UU0) | inactive: 0.001 | inactive: -0.028 | inactive: 0.019 | inactive: 0.051 | inactive: 0.05
BLMH (UniProt Q13867) | inactive: -0.001 | inactive: -0.047 | inactive: -0.099 | inactive: 0.024 | inactive: 0.059
